Measured data: PubChem BioAssay AID493246 (Drosophila RNAi Screening Center, 2011)
In all, the deposit lists about 21,000 reagents; below is a random part of those that have a named target and a result. Of all reagents, 429 (2%) were called active. 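Values are raw and not normalised between plates; calls rest on per-plate z-scores that were not deposited.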 Names joined by + are all predicted targets of the reagent. No sequences are given here. Not given: the amount of reagent, the time to read-out.

Aim: 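Identify essential fly genes by loss of cell viability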 (primary screen)
System: Drosophila Kc and S2R+ cells
Reagent: long dsRNA against Drosophila genes
Read-out: 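Raw, unnormalised count of remaining cells in each well; per-plate z-scores of cell number underlie the calls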
Reading the numbers: Kc cell number and S2R+ cell number: higher = more cells remaining
Call rule: 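Active when the per-plate z-score of cell number is 3 or more in the direction of fewer cells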

The first 7 records as a preview:
Target gene | amplicon | Kc cell number, rep 1 | Kc cell number, rep 2 | S2R+ cell number, rep 1 | S2R+ cell number, rep 2 | Outcome
BRWD3 | DRSC15369 | 1.58e6 | 1.72e6 | 1.14e6 | 1.19e6 | inactive
BRWD3 | DRSC16032 | 1.43e6 | 1.52e6 | 1.04e6 | 1.10e6 | inactive
CG13114 | DRSC02212 | 1.78e6 | 1.89e6 | 1.15e6 | 1.33e6 | inactive
Cap-G (Chromosome associated protein G) | DRSC06652 | 1.68e6 | 1.63e6 | 1.38e6 | 1.46e6 | inactive
Cap-G (Chromosome associated protein G) | DRSC06653 | 1.68e6 | 1.65e6 | 1.31e6 | 1.55e6 | inactive
Vha100-2 (Vacuolar H[+] ATPase 100kD subunit 2) | DRSC14152 | 1.58e6 | 1.65e6 | 1.30e6 | 1.36e6 | inactive
CG12011 | DRSC08219 | 1.36e6 | 5.88e5 | 1.08e6 | 1.20e6 | inactive

The listing, from the start:
Target gene | amplicon | Kc cell number, rep 1 | Kc cell number, rep 2 | S2R+ cell number, rep 1 | S2R+ cell number, rep 2 | Outcome
BRWD3 | DRSC15369 | 1.58e6 | 1.72e6 | 1.14e6 | 1.19e6 | inactive
BRWD3 | DRSC16032 | 1.43e6 | 1.52e6 | 1.04e6 | 1.10e6 | inactive
CG13114 | DRSC02212 | 1.78e6 | 1.89e6 | 1.15e6 | 1.33e6 | inactive
Cap-G (Chromosome associated protein G) | DRSC06652 | 1.68e6 | 1.63e6 | 1.38e6 | 1.46e6 | inactive
Cap-G (Chromosome associated protein G) | DRSC06653 | 1.68e6 | 1.65e6 | 1.31e6 | 1.55e6 | inactive
Vha100-2 (Vacuolar H[+] ATPase 100kD subunit 2) | DRSC14152 | 1.58e6 | 1.65e6 | 1.30e6 | 1.36e6 | inactive
CG12011 | DRSC08219 | 1.36e6 | 5.88e5 | 1.08e6 | 1.20e6 | inactive
Vhl (von Hippel-Lindau) | DRSC07716 | 1.51e6 | 1.54e6 | 1.18e6 | 1.28e6 | inactive
CG15399 | DRSC00413 | 1.87e6 | 1.87e6 | 1.13e6 | 1.18e6 | inactive
CG5397 | DRSC00683 | 1.26e6 | 1.36e6 | 1.18e6 | 1.20e6 | inactive
CG13361 | DRSC17896 | 1.54e6 | 1.50e6 | 1.04e6 | 1.13e6 | inactive
Tsen54 (tRNA splicing endonuclease subunit 54) | DRSC10527 | 1.47e6 | 1.52e6 | 1.41e6 | 1.45e6 | inactive
Ack-like (Activated Cdc42 kinase-like) | DRSC07500 | 1.38e6 | 1.47e6 | 1.09e6 | 9.08e5 | inactive
CG17249 | DRSC08517 | 1.31e6 | 1.35e6 | 1.14e6 | 1.18e6 | inactive
CG42729 | DRSC10236 | 1.69e6 | 1.60e6 | 1.20e6 | 1.35e6 | inactive
fabp + sea | DRSC16114 | 1.48e6 | 1.52e6 | 1.28e6 | 1.30e6 | inactive
fabp + sea | DRSC16115 | 1.45e6 | 1.51e6 | 1.31e6 | 1.33e6 | inactive
Or67c (Odorant receptor 67c) | DRSC11242 | 1.72e6 | 1.64e6 | 1.39e6 | 1.47e6 | inactive
CG33255 (retired record) + hpRNA:CR32205 + hpRNA:CR32207 | DRSC09617 | 1.36e6 | 1.46e6 | 1.09e6 | 1.27e6 | inactive
msl-2 (male-specific lethal 2) | DRSC00829 | 1.31e6 | 1.37e6 | 9.24e5 | 8.99e5 | inactive
Cyp4ad1 (Cytochrome P450 4ad1) | DRSC07369 | 1.36e6 | 1.40e6 | 1.17e6 | 1.23e6 | inactive
TTLL6B (Tubulin tyrosine ligase-like 6B) | DRSC15932 | 1.55e6 | 1.60e6 | 9.43e5 | 1.07e6 | inactive
GstE13 (Glutathione S transferase E13) | DRSC06083 | 1.45e6 | 1.45e6 | 1.15e6 | 1.17e6 | inactive
Andorra | DRSC19475 | 1.49e6 | 1.49e6 | 1.07e6 | 1.16e6 | inactive
CG16890 | DRSC01890 | 1.25e6 | 1.36e6 | 1.26e6 | 1.05e6 | inactive
CG8671 | DRSC03102 | 1.56e6 | 1.67e6 | 1.36e6 | 5.81e5 | inactive
CG8671 | DRSC03103 | 1.58e6 | 1.67e6 | 1.38e6 | 5.66e5 | inactive
Mat1 (Menage a trois 1) | DRSC07465 | 1.84e6 | 1.71e6 | 1.39e6 | 1.49e6 | inactive
CycB (Cyclin B) | DRSC04605 | 1.34e6 | 1.42e6 | 9.26e5 | 1.05e6 | inactive
CG7824 | DRSC16321 | 1.48e6 | 1.53e6 | 1.02e6 | 1.09e6 | inactive
TkR99D (Tachykinin-like receptor at 99D) | DRSC16881 | 1.64e6 | 1.74e6 | 1.05e6 | 1.20e6 | inactive
Srp54 (Splicing regulatory protein 54) | DRSC03442 | 9.37e5 | 1.01e6 | 1.03e6 | 1.10e6 | inactive
LysS (Lysozyme S) | DRSC08677 | 1.55e6 | 1.44e6 | 9.74e5 | 1.36e6 | inactive
CG34425 | DRSC12210 | 1.36e6 | 1.49e6 | 1.30e6 | 1.37e6 | inactive
dyw (daywake) | DRSC18228 | 1.42e6 | 1.51e6 | 9.44e5 | 1.15e6 | inactive
Asap (ArfGAP with SH3 domain, ankyrin repeat and PH domain) | DRSC06493 | 1.51e6 | 1.68e6 | 1.21e6 | 1.41e6 | inactive
Asap (ArfGAP with SH3 domain, ankyrin repeat and PH domain) | DRSC06830 | 1.23e6 | 1.33e6 | 1.09e6 | 1.15e6 | inactive
CG15414 | DRSC00429 | 1.63e6 | 1.60e6 | 1.23e6 | 1.38e6 | inactive
RpL7A (Ribosomal protein L7A) | DRSC18709 | 1.03e6 | 1.04e6 | 5.58e5 | 6.75e5 | active
CtsL4 (Cathepsin L4) | DRSC02849 | 1.51e6 | 1.60e6 | 1.16e6 | 1.31e6 | inactive
VhaAC39-1 (Vacuolar H[+] ATPase AC39 subunit 1) | DRSC18242 | 5.49e5 | – | 8.57e5 | – | inactive
CG7335 | DRSC10816 | 1.58e6 | 1.48e6 | 1.40e6 | 1.42e6 | inactive
CG15202 | DRSC19649 | 1.61e6 | 1.62e6 | 1.10e6 | 1.25e6 | inactive
Sil1 (Sil1 nucleotide exchange factor) | DRSC14242 | 1.48e6 | 1.58e6 | 1.29e6 | 1.34e6 | inactive
spas (spastin) | DRSC15929 | 1.68e6 | 1.74e6 | 1.34e6 | 1.45e6 | inactive
LManV (Lysosomal alpha-mannosidase V) | DRSC03223 | 1.22e6 | 1.18e6 | 9.87e5 | 7.51e5 | inactive
CG18549 | DRSC15347 | 1.72e6 | 1.86e6 | 1.22e6 | 1.39e6 | inactive
CG17190 | DRSC15184 | 1.47e6 | 1.47e6 | 1.08e6 | 1.16e6 | inactive
CG9752 | DRSC04562 | 1.25e6 | 1.30e6 | 1.16e6 | 1.15e6 | inactive
CG3662 | DRSC00626 | 1.45e6 | 1.46e6 | 5.97e5 | 7.58e5 | inactive
p23 | DRSC15158 | 1.56e6 | 1.59e6 | 1.22e6 | 1.30e6 | inactive
Cpr67Fa1 (Cuticular protein 67Fa1) | DRSC10932 | 1.30e6 | 1.36e6 | 1.25e6 | 1.27e6 | inactive
CG6414 | DRSC18401 | 1.53e6 | 1.54e6 | 1.05e6 | 1.16e6 | inactive
Dys (Dystrophin) | DRSC13360 | 1.76e6 | 1.79e6 | 1.09e6 | 1.12e6 | inactive
Dys (Dystrophin) | DRSC13364 | 1.39e6 | 1.39e6 | 1.02e6 | 1.08e6 | inactive
Dys (Dystrophin) | DRSC15260 | 1.30e6 | 1.28e6 | 1.05e6 | 1.17e6 | inactive
Dys (Dystrophin) | DRSC16218 | 1.33e6 | 1.33e6 | 1.08e6 | 1.16e6 | inactive
Dys (Dystrophin) | DRSC16219 | 1.23e6 | 1.15e6 | 1.09e6 | 1.21e6 | inactive
Dys (Dystrophin) | DRSC16220 | 1.39e6 | 1.40e6 | 1.12e6 | 1.26e6 | inactive
Dys (Dystrophin) | DRSC16935 | 1.33e6 | 1.31e6 | 1.01e6 | 1.08e6 | inactive
